Screen size: about 340,000 compounds; about 6,200 (1.8%) were called active. Inconclusive results, whose numbers are uncertain, are shown with a selection of clear calls. Calls come from the whole dose curve; as a rule, active = well fitted activation curve with a large enough effect; inconclusive = small, poorly fitted or top-dose-only effect; inactive = no such curve, though single readings can be large or run the other way. Potencies of inconclusive entries are doubtful fits and often do not repeat.
assay: A quantitative high throughput screen for small molecules that induce DNA re-replication in SW480 colon adenocarcinoma cells.; note: nearly all actives have a fitted effect of over 55% in size; for re-replication activation: % of control where 0% means no effect; details: Hoechst DNA content imaging, 48 h; re-replication activation: at 46.1 µM (top of the series)
Procedure, shortened: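 Image-based DNA-content assay: after two days of treatment, nuclei were labelled with the DNA dye Hoechst and imaged, and hits were compounds raising the count of nuclei showing high fluorescence intensity.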
Potency is the fitted concentration of half-maximal effect.

Question: For `CNC(=O)c1nnsc1S(=O)c1ccc(Cl)cc1` (stereo not drawn), which Potency is on record?
Answer: inconclusive: 4.61 µM [activator, partial curve, poor fit]

Question: Which Potency does the source give for `CC(=O)C1=C(C)NC(SCC(=O)c2cc(Cl)ccc2Cl)=C(C#N)C1c1ccco1` (stereo not drawn) here?
Answer: inconclusive: 29.1 µM [activator, single point]

Question: With `Cc1c(NC(=S)SCc2ccccc2)c(=O)n(-c2ccccc2)n1C` as the compound, how does the Potency read?
Answer: inconclusive: 18.4 µM [activator, single point]

Question: Which Potency does the source give for `CC(NC(=O)COC(=O)c1ccc2c(c1)OCCO2)c1ccccc1` (stereo not drawn) here?
Answer: inconclusive: 18.4 µM [activator, partial curve, poor fit]

Question: For `Cc1c(C(c2ccc(N(C)C)cc2)c2c(C)n(C)n(-c3ccccc3)c2=O)c(=O)n(-c2ccccc2)n1C`, which Potency is on record?
Answer: inconclusive: 0.0052 µM [activator, full curve, poor fit]

Question: Which Potency does the source give for `CCOC(=O)C1(Cc2ccc(Cl)cc2)CCN(Cc2cnc(N)nc2)CC1` here?
Answer: inconclusive: 29.1 µM [activator, single point]

Question: For `CCOc1ccccc1OCC(=O)N/N=C(\C)Cc1ccc(OC)cc1`, which Potency is on record?
Answer: active: 8.2 µM

Question: With `O=C(NCc1cccc(C(F)(F)F)c1)C1CC(c2c(Cl)cccc2Cl)=NO1` (stereo not drawn) as the compound, how does the Potency read?
Answer: inconclusive: 18.4 µM [activator, single point]

Question: For `CN1CCC(=NNC(=O)C(=O)Nc2cccc(Br)c2)CC1`, which Potency is on record?
Answer: inconclusive: 32.6 µM [activator, partial curve, poor fit]

Question: Which Potency does the source give for `Cc1[nH]n(-c2ccc([N+](=O)[O-])cc2)c(=O)c1C=NCCN1CCN(C(=O)c2cccc(F)c2)CC1` here?
Answer: inactive

Question: With `Cc1ccc(NC2=CC(=O)CC(c3ccc(Cl)cc3)C2)cc1` (stereo not drawn) as the compound, how does the Potency read?
Answer: inactive

Question: With `COc1ccc(NC(=O)CN(c2ccccc2OC)S(=O)(=O)c2cccs2)cc1Cl` as the compound, how does the Potency read?
Answer: inconclusive: 16.4 µM [activator, single point]

Question: With `Cc1cccc(NC(=S)N=Nc2c(O)[nH]c3ccccc23)c1` as the compound, how does the Potency read?
Answer: inconclusive: 29.1 µM [activator, partial curve, poor fit]

Question: With `C=CCNC(=O)/C(C#N)=C\c1cc(Cl)c(O)c(OCC)c1` as the compound, how does the Potency read?
Answer: inconclusive: 8.2 µM [activator, partial curve, poor fit]

Question: With `CC(C)CNC(=O)COC(=O)c1c2c(nc3ccccc13)/C(=C\c1cccs1)CC2` as the compound, how does the Potency read?
Answer: active: 6.51 µM

Question: For `Cc1ccc2cc3c(NC(=O)CC(C)C)nn(C)c3nc2c1`, which Potency is on record?
Answer: inconclusive: 29.1 µM [activator, single point]

Question: With `Cc1c(NC(=O)C(C)OC(=O)c2ccc(NC(=O)CC#N)cc2)c(=O)n(-c2ccccc2)n1C` (stereo not drawn) as the compound, how does the Potency read?
Answer: inactive

Question: With `COc1cc(CNCCSc2nnnn2C)cc(Br)c1OCc1ccccc1` as the compound, how does the Potency read?
Answer: inconclusive: 29.1 µM [activator, single point]

Question: For `CCCCN(C)C1=Nc2cccc3cccc1c23`, which Potency is on record?
Answer: inconclusive: 32.6 µM [activator, partial curve, poor fit]

Question: Which Potency does the source give for `O=C(O)CNC(=O)/C(=C/c1ccco1)NC(=O)/C=C/c1ccccc1` here?
Answer: inconclusive: 0.82 µM [activator, full curve, poor fit]

Question: With `Cc1nonc1NC(=O)CSc1nnnn1-c1ccccc1` as the compound, how does the Potency read?
Answer: inactive

Question: For `Cc1cnccc1CN(C)C(=O)C1CCC(=O)N(Cc2ccccc2F)C1` (stereo not drawn), which re-replication activation is on record?
Answer: inconclusive: 112% [activator]

Question: For `O=C(Nc1ccccc1C(=O)Nc1ccccc1C(=O)NCc1ccco1)c1ccco1`, which Potency is on record?
Answer: inconclusive: 29.1 µM [activator, single point]

Question: Which Potency does the source give for `COc1ccc2nc(SCC(=O)Nc3c(C)cc(C)cc3C)[nH]c2c1` here?
Answer: inconclusive: 0.0046 µM [activator, full curve, poor fit]

Question: For `O=Nc1c(-c2c(O)[nH]c3cc(Br)ccc23)[nH]c2ccccc12`, which Potency is on record?
Answer: inconclusive: 32.6 µM [activator, partial curve, poor fit]

Question: With `COc1cccc(NC(=O)CCCn2nc(C)c3c(C)n(-c4ccccc4)nc3c2=O)c1` as the compound, how does the Potency read?
Answer: inconclusive: 6.51 µM [activator, single point]

Question: Which Potency does the source give for `COc1ccc(C(=O)COC(=O)c2cccc(-n3cnnn3)c2)c(OC)c1` here?
Answer: inactive

Question: Which Potency does the source give for `COc1ccc(NC(=O)c2sc3nc(C)cc(C)c3c2N)cc1` here?
Answer: inconclusive: 23.1 µM [activator, partial curve, poor fit]

Question: Which Potency does the source give for `Cc1nnc(SCc2cc(=O)[nH]c(/N=C(\N)Nc3ccccc3)n2)s1` here?
Answer: inconclusive: 29.1 µM [activator, single point]

Question: With `CNC(=S)NNC(=O)CCn1nc(C)c(Br)c1C` as the compound, how does the Potency read?
Answer: inconclusive: 29.1 µM [activator, single point]

Question: Which Potency does the source give for `CCOc1ccc(CN2CCN(CCCc3ccccc3)C(CCO)C2)cc1` (stereo not drawn) here?
Answer: inconclusive: 29.1 µM [activator, single point]

Question: Which Potency does the source give for `O=C1C2C3CCC(O3)C2C(=O)N1c1cccc(O)c1` (stereo not drawn) here?
Answer: inconclusive: 1.84 µM [activator, partial curve, poor fit]

Question: For `COc1ccc(CN2CCNC(=O)C2CC(=O)NC2CCCC2)cc1OC` (stereo not drawn), which Potency is on record?
Answer: inconclusive: 16.4 µM [activator, partial curve]

Question: For `COc1ccc(-c2cc(C3CCN(Cc4cccc(C(F)(F)F)c4)CC3)[nH]n2)cc1`, which Potency is on record?
Answer: inconclusive: 29.1 µM [activator, single point]

Question: Which Potency does the source give for `Cc1ccc(C(NC(=O)N2CCN(C)CC2)C(Cl)Cl)cc1F` (stereo not drawn) here?
Answer: inconclusive: 29.1 µM [activator, single point]

Question: With `CCOC(=O)C1=C(c2ccccc2)NC(SCC(=O)Nc2ccc(C)cc2)=C(C#N)C1c1ccco1` (stereo not drawn) as the compound, how does the Potency read?
Answer: inconclusive: 9.2 µM [activator, partial curve]

Question: For `Cc1cc(=O)oc2cc(OC(C)C(=O)NC3CCN(Cc4ccccc4)CC3)ccc12` (stereo not drawn), which Potency is on record?
Answer: inactive

Question: For `COc1cccc(-c2nn(-c3ccc(C)cc3)cc2C(=O)NCC(c2cccs2)N2CCOCC2)c1` (stereo not drawn), which Potency is on record?
Answer: inactive

Question: Which Potency does the source give for `CSCC[C@H](NC(=O)NCc1ccccc1F)C(=O)O` here?
Answer: inconclusive: 2.91 µM [activator, partial curve, poor fit]

Question: With `CC(=O)Nc1ccc(NC(=O)C(C)OC(=O)c2ccc3[nH]c(C)c(C)c3c2)cc1` (stereo not drawn) as the compound, how does the Potency read?
Answer: inconclusive: 18.4 µM [activator, partial curve, poor fit]

Question: Which Potency does the source give for `O=C1c2ccccc2-n2c1nc1ccccc1c2=O` here?
Answer: active: 1.16 µM

Question: With `Nc1ccc2c(C(F)(F)F)cc(C(F)(F)F)nc2n1` as the compound, how does the Potency read?
Answer: inconclusive: 23.1 µM [activator, single point]

Question: With `COc1cc2ccccc2cc1C(=O)OCc1nc2ccsc2c(=O)[nH]1` as the compound, how does the Potency read?
Answer: inactive

Question: For `CCc1ccc2nc(N(CCN(C)C)C(=O)c3ccc4ccccc4c3)sc2c1`, which Potency is on record?
Answer: inactive

Question: With `COc1ccc(Nc2ccc(N3C(=O)CC(C)C3=O)cc2[N+](=O)[O-])cn1` (stereo not drawn) as the compound, how does the Potency read?
Answer: inconclusive: 9.2 µM [activator, partial curve, poor fit]

Question: With `COc1ccccc1OCC(=O)NCCSCc1cccc(Cl)c1` as the compound, how does the Potency read?
Answer: inactive

Question: With `CC1=C(c2ccccc2)C(O)(c2ccccc2)C(C)C1=O` (stereo not drawn) as the compound, how does the Potency read?
Answer: inconclusive: 14.6 µM [activator, single point]

Question: For `Cc1cccc(NC(=O)N(Cc2cc3cc(C)cc(C)c3[nH]c2=O)CC2COCCO2)c1` (stereo not drawn), which Potency is on record?
Answer: inconclusive: 32.6 µM [activator, partial curve, poor fit]

Question: Which Potency does the source give for `COc1cc(Cl)c(C)cc1NC(=O)Cn1c(NCCO)nc2ccccc21` here?
Answer: inconclusive: 20.6 µM [activator, single point]

Question: Which Potency does the source give for `CCn1nc(NC(=O)CC(C)C)c2cc3ccc(C)cc3nc21` here?
Answer: inconclusive: 18.4 µM [activator, single point]

Question: Which Potency does the source give for `CC(C)NC(=O)c1ccccc1-c1ccccc1` here?
Answer: inactive

Question: For `COC(=O)c1ccc(C(=O)NC2CCCc3c2cnn3-c2cc(F)cc(F)c2)nc1` (stereo not drawn), which Potency is on record?
Answer: active: 6.51 µM

Question: With `CC(C)(C)NC(=O)/C(=C\c1ccco1)NC(=O)c1ccco1` as the compound, how does the Potency read?
Answer: inactive

Question: Which Potency does the source give for `O=C(CN1CCCCCC1)Nc1cccc2c1OCO2` here?
Answer: inconclusive: 25.9 µM [activator, single point]

Question: Which Potency does the source give for `COc1ccc(CC(=O)NCc2ccc(-n3cccc3)cc2)cc1OC` here?
Answer: active: 5.17 µM

Question: For `N#Cc1ccc(CN2CCN(CC(=O)NCCc3ccc(Cl)cc3Cl)CC2)cc1`, which Potency is on record?
Answer: inconclusive: 0.184 µM [activator, full curve]

Question: For `CC1(C)C(O)=C(c2nc3ccccc3[nH]2)C(=N)N1c1ccccc1`, which Potency is on record?
Answer: active: 9.2 µM

Question: With `CN(CC(=O)Nc1ccc(Cl)c(C(F)(F)F)c1)C(=O)CCN1C(=O)C2CC=CCC2C1=O` (stereo not drawn) as the compound, how does the Potency read?
Answer: inactive

Question: With `CCOC(=O)/C(=C\c1ccccc1)C(=O)CCN1CCOCC1` as the compound, how does the Potency read?
Answer: inactive

Question: With `O=C(COC(=O)c1ccc(NS(=O)(=O)c2cccs2)cc1)NCc1ccco1` as the compound, how does the Potency read?
Answer: inconclusive: 18.4 µM [activator, single point]

Question: For `Cc1cccc(N(CC(=O)Nc2ccc(F)cc2)S(C)(=O)=O)c1`, which Potency is on record?
Answer: inactive

Question: With `Cc1[nH]nc2c1C(c1cc(Br)cs1)C(C#N)=C(N)O2` (stereo not drawn) as the compound, how does the Potency read?
Answer: inconclusive: 29.1 µM [activator, single point]

Question: For `COCCNC(=O)C(c1ccc(Cl)cc1)N(CCOC)C(=O)CCC(=O)Nc1nccs1` (stereo not drawn), which Potency is on record?
Answer: inactive

Question: For `O=C(CN1CCCc2ccccc21)N/N=C/c1c(O)ccc2ccccc12`, which Potency is on record?
Answer: inconclusive: 4.61 µM [activator, partial curve, poor fit]

Question: With `Cc1cc(C(=O)Cn2cc([N+](=O)[O-])ccc2=O)c(C)n1CC1CCCO1` (stereo not drawn) as the compound, how does the Potency read?
Answer: inactive

Question: With `CC(=O)Nc1ccc(NC(=O)C(C)OC(=O)c2ccc(S(=O)(=O)N3CCCCC3)cc2)cc1` (stereo not drawn) as the compound, how does the Potency read?
Answer: inconclusive: 20.6 µM [activator, single point]

Question: With `Cc1cc(C(=O)NCCc2ccc(Cl)cc2)no1` as the compound, how does the Potency read?
Answer: inactive

Question: With `Cc1ccccc1C(=O)N/N=C/c1ccc([N+](=O)[O-])s1` as the compound, how does the Potency read?
Answer: inconclusive: 25.9 µM [activator, single point]

Source: PubChem BioAssay AID624297 (National Center for Advancing Translational Sciences (NCATS), 2012)
